{"source": "PubChem BioAssay AID328", "about": "(DTP/NCI, 2004)", "test_system": "BDF1 mice, P388 leukemia ip, median survival T/C", "test": "NCI In Vivo Anticancer Drug Screen. Data for tumor model P388 Leukemia (intraperitoneal) in B6D2F1 (BDF1) mice", "conditions": "T/C endpoint: median survival time, higher T/C = longer survival", "procedure": "The antitumor activity of compounds was measured in mice bearing transplantable tumors. Survival or tumor size were measured and the results are expressed as the measurement made in the treated group (T) divided by the measurement made in the vehicle treated control group (C). The tumor model used in this assay is P388 Leukemia (intraperitoneal) in B6D2F1 (BDF1) mice", "key": {"[1]": {"conditions": "dose: 50.0 mg/kg/injection, schedule: Q01DX009 (ip), vehicle: saline with Tween-80"}, "[2]": {"conditions": "dose: 100.0 mg/kg/injection, schedule: Q01DX009 (ip), vehicle: saline with Tween-80"}, "[3]": {"conditions": "dose: 200.0 mg/kg/injection, schedule: Q01DX009 (ip), vehicle: saline with Tween-80"}, "[4]": {"conditions": "dose: 400.0 mg/kg/injection, schedule: Q01DX009 (ip), vehicle: saline with Tween-80"}, "[5]": {"conditions": "dose: 400.0 mg/kg/injection, schedule: Q04DX003 (ip), vehicle: saline with Tween-80"}, "[6]": {"conditions": "dose: 100.0 mg/kg/injection, schedule: Q04DX003 (ip), vehicle: saline with Tween-80"}, "[7]": {"conditions": "dose: 200.0 mg/kg/injection, schedule: Q04DX003 (ip), vehicle: saline"}}, "note": "The list does not hold the whole screen: it is rich in T/C values a quarter to a half above the control, in often repeated tests (any T/C) and in doses without a T/C. Other doses and runs of a compound stand elsewhere. T/C: endpoint of the treated group in % of that of the vehicle group. Some entries give survivors of the animals treated and no T/C: the source files T/C as zero there, which appears to mark a toxic dose or a test without result, not a measured value. Some doses without a T/C left all or most animals alive at the check, yet need not have been tolerated: survival well below the control is almost never listed, so the zero probably covers shortened survival too. Survivors were counted at the toxicity check, usually on the fifth day, unless a day is given; later deaths do not show. Schedules are NCI's codes, read here as Q, the interval in days (D) or hours (H), X, the number of doses. Where survival is the endpoint, the PubChem record calls one and a half times the control and up active, and a quarter to a half above the control has no call in these data; cut-offs in other NCI protocols can differ."}
{"smiles": "CNC(C)Cc1ccccc1OC", "note": "(centres undefined)", "values": [{"measurement": "survivor count", "setting": "dose: 100.0 mg/kg/injection, schedule: Q04DX003 (ip), vehicle: saline", "result": "3 of 6"}]}
{"smiles": "CC1CN1S(=O)(=O)N1CC1C", "note": "(centres undefined)", "values": [{"measurement": "T/C", "setting": "dose: 11.0 mg/kg/injection, schedule: Q04DX003 (ip), vehicle: saline with Tween-80", "result": "136 % of control"}, {"measurement": "T/C", "setting": "dose: 12.5 mg/kg/injection, schedule: Q04DX003 (ip), vehicle: saline with Tween-80", "result": "145 % of control"}, {"measurement": "survivor count", "setting": "dose: 50.0 mg/kg/injection, schedule: Q04DX003 (ip), vehicle: saline with Tween-80", "result": "6 of 6"}]}
{"smiles": "OC1CC2C3C4C1C1C2C3C41", "note": "(centres undefined)", "values": [{"measurement": "survivor count", "setting": "dose: 400.0 mg/kg/injection, schedule: Q01DX001 (ip), vehicle: saline", "result": "4 of 6"}]}
{"smiles": "Nc1nc2ncc(CNc3ccc(C(=O)NC(CCC(=O)O)C(=O)O)cn3)nc2c(=O)[nH]1", "note": "(centres undefined)", "values": [{"measurement": "survivor count", "setting": "[1]", "result": "6 of 6"}]}
{"smiles": "CCN(c1ccccc1)c1cc2c(cc1[N+](=O)[O-])no[n+]2[O-]", "values": [{"measurement": "T/C", "setting": "dose: 15.0 mg/kg/injection, schedule: Q01DX009 (ip), vehicle: saline with Tween-80", "result": "128 % of control"}]}
{"smiles": "O=[N+]([O-])c1cc([N+](=O)[O-])c2ccccc2c1NS(=O)(=O)c1ccc(Br)cc1", "values": [{"measurement": "T/C", "setting": "[2]", "result": "132 % of control"}]}
{"smiles": "NC(c1ccccc1)C(N)c1ccccc1", "note": "(centres undefined)", "values": [{"measurement": "survivor count", "setting": "[1]", "result": "6 of 6"}, {"measurement": "survivor count", "setting": "[2]", "result": "6 of 6"}, {"measurement": "survivor count", "setting": "[3]", "result": "4 of 6"}, {"measurement": "survivor count", "setting": "dose: 200.0 mg/kg/injection, schedule: Q04DX003 (ip), vehicle: saline with Tween-80", "result": "3 of 6"}, {"measurement": "survivor count", "setting": "[4]", "result": "0 of 6"}, {"measurement": "survivor count", "setting": "[5]", "result": "3 of 6"}]}
{"smiles": "C=CC(C#N)(C=C)C=C", "values": [{"measurement": "survivor count", "setting": "[2]", "result": "0 of 6"}, {"measurement": "survivor count", "setting": "[3]", "result": "0 of 6"}]}
{"smiles": "Cc1nn2c(=O)[nH]cnc2c1Cl", "values": [{"measurement": "survivor count", "setting": "[6]", "result": "6 of 6"}, {"measurement": "survivor count", "setting": "[4]", "result": "3 of 6"}]}
{"smiles": "CC(C#N)(Nc1ccccc1)c1ccco1", "note": "(centres undefined)", "values": [{"measurement": "survivor count", "setting": "dose: 100.0 mg/kg/injection, schedule: Q04DX003 (ip), vehicle: other", "result": "6 of 6"}, {"measurement": "survivor count", "setting": "dose: 200.0 mg/kg/injection, schedule: Q04DX003 (ip), vehicle: other", "result": "2 of 6"}, {"measurement": "survivor count", "setting": "dose: 400.0 mg/kg/injection, schedule: Q04DX003 (ip), vehicle: other", "result": "0 of 6"}]}
{"smiles": "Clc1nc2nsnc2nc1Cl", "values": [{"measurement": "survivor count", "setting": "[6]", "result": "6 of 6"}, {"measurement": "survivor count", "setting": "[5]", "result": "4 of 6"}]}
{"smiles": "COc1cc(NC(C)CCCN)c2ncccc2c1Oc1ccc(Cl)cc1", "note": "(centres undefined)", "values": [{"measurement": "survivor count", "setting": "[2]", "result": "2 of 6"}, {"measurement": "survivor count", "setting": "[3]", "result": "0 of 6"}]}
{"smiles": "CCOc1ccc(/C=N/NS(=O)(=O)c2ccc(C)cc2)cc1", "values": [{"measurement": "survivor count", "setting": "dose: 100.0 mg/kg/injection, schedule: Q01DX009 (ip), vehicle: Klucel (hydroxypropylcellulose) (HPC)", "result": "6 of 6"}, {"measurement": "survivor count", "setting": "dose: 400.0 mg/kg/injection, schedule: Q01DX009 (ip), vehicle: Klucel (hydroxypropylcellulose) (HPC)", "result": "6 of 6"}]}
{"smiles": "CCCCCCCCCCCC[n+]1ccc2ccccc2c1", "values": [{"measurement": "survivor count", "setting": "dose: 2.0 mg/kg/injection, schedule: Q01DX010 (ip), vehicle: saline", "result": "1 of 6"}, {"measurement": "survivor count", "setting": "dose: 4.0 mg/kg/injection, schedule: Q01DX010 (ip), vehicle: saline", "result": "0 of 6"}, {"measurement": "survivor count", "setting": "dose: 8.0 mg/kg/injection, schedule: Q01DX010 (ip), vehicle: saline", "result": "0 of 6"}]}
{"smiles": "Cc1ccc(S(=O)(=O)O)cc1", "values": [{"measurement": "survivor count", "setting": "[7]", "result": "0 of 6"}]}
{"smiles": "COc1ccccc1CC(C)N", "note": "(centres undefined)", "values": [{"measurement": "survivor count", "setting": "dose: 40.0 mg/kg/injection, schedule: Q01DX009 (ip), vehicle: saline with Tween-80", "result": "6 of 6"}]}
{"smiles": "O=C(CSCSCC(=O)Nc1ccc(C2=NCCN2)cc1)Nc1ccc(C2=NCCN2)cc1", "values": [{"measurement": "T/C", "setting": "dose: 25.0 mg/kg/injection, schedule: Q04DX003 (ip), vehicle: saline", "result": "125 % of control"}, {"measurement": "T/C", "setting": "dose: 35.0 mg/kg/injection, schedule: Q01DX009 (ip), vehicle: Klucel (hydroxypropylcellulose) (HPC)", "result": "137 % of control"}, {"measurement": "T/C", "setting": "dose: 50.0 mg/kg/injection, schedule: Q01DX009 (ip), vehicle: Klucel (hydroxypropylcellulose) (HPC)", "result": "129 % of control"}, {"measurement": "T/C", "setting": "dose: 75.0 mg/kg/injection, schedule: Q01DX009 (ip), vehicle: Klucel (hydroxypropylcellulose) (HPC)", "result": "137 % of control"}, {"measurement": "T/C", "setting": "dose: 90.0 mg/kg/injection, schedule: Q04DX003 (ip), vehicle: saline", "result": "138 % of control"}, {"measurement": "survivor count", "setting": "[7]", "result": "4 of 6"}, {"measurement": "survivor count", "setting": "dose: 300.0 mg/kg/injection, schedule: Q04DX003 (ip), vehicle: saline", "result": "3 of 6"}]}
